Screening data, single-dose tests

Amino acid sequences for entries named in this document (tags omitted). Residues count along the entry.
UniProt Q8IDJ8, 1-583: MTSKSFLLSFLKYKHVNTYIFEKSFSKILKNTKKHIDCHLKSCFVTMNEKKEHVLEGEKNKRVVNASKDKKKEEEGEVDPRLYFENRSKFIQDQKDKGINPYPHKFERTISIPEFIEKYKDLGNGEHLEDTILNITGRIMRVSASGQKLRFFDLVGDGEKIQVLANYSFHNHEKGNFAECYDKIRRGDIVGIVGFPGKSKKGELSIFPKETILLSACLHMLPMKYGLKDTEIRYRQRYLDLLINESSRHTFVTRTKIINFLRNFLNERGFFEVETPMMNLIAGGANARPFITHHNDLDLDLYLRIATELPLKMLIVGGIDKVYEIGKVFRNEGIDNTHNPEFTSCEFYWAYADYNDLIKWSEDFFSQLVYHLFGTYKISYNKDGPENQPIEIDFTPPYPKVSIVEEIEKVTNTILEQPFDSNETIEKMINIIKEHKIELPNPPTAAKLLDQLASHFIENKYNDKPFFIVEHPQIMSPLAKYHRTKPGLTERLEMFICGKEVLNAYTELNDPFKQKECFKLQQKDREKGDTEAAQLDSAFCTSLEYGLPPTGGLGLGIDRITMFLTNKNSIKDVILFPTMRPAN

From ChEMBL document CHEMBL3988442, “University of Dundee, Small-Polar-MMV Screening Library” (2021).

Results are given as percent effect.
The record does not define 0% and 100%; most values in the screen are far below 50% and negative numbers occur (in some assays of this library far below -100).
This is an unselected part of the compounds tested.

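Enzyme assay of the cytosolic lysyl-tRNA synthetase in 384-well plates, read by luminescence. Target: Lysine-tRNA ligase, Plasmodium falciparum 3D7 (UniProt Q8IDJ8). Tested at 30 µM. Higher reads as stronger inhibition, judged from the few compounds that gave an IC50. About 69,000 compounds were tested under these conditions; 0.071% (about 49) showed 50% or more at least once.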

Compound | percent effect
CC1=N[C@@]2(CC[C@@H]3CN(Cc4ccccc4)C[C@@H]32)C(=O)N1CC1CC1 | 0.8631
O=C(NC1CCC1)c1cccc(S(=O)(=O)NCc2nc(C3CC3)no2)c1 | 0.6377
Cc1cc(C(=O)N2CCC3(CCC(=O)N(CC(N)=O)C3)CC2)ccc1O | 6.833
O=C(NCCc1ccncc1)[C@H]1CC[C@@H]2[C@@H](CCN2C2CCC2)O1 | 2.931
CC1CCCN(C(=O)CCc2cccnc2)C1 (stereo unspecified) | 6.435
O=C(c1ccc(Br)o1)N1CCCCC1Cn1cccn1 (stereo unspecified) | 2.118
Cc1cnc(-c2nc(-c3cccc(CN4CCOCC4)c3)no2)cn1 | 3.948
CCN(CC1CCOC1)C(=O)NCc1nnc2n1CCCCC2 (stereo unspecified) | 5.843
CCC[C@@H]1CN(Cc2c[nH]nc2-c2ccc(OC)cc2)C[C@H]1NC(C)=O | 4.71
c1ccc2nc(N3CCOC(Cn4cccn4)C3)cnc2c1 (stereo unspecified) | -0.8945
COCCN(C)C(=O)c1nc2c(s1)CCCN2c1ccc(C)nn1 | 3.602
Cc1nn(CC(=O)Nc2ccon2)c(C)c1Br | 4.125
COc1cccc([C@@H]2CN(C3CSCCSC3)C[C@H]2C(=O)O)c1 | 4.721
COC(=O)c1cc(C(=O)N2CCOC(C)(C)C2)n(-c2ccccc2)n1 | -0.8121
Cc1ccsc1CN(C)Cc1ncccc1C(=O)O | -0.5533
CC(Cn1cccn1)C(=O)N1CCC(NS(C)(=O)=O)CC1 (stereo unspecified) | 2.873
Cc1nnc(NC(=O)NCc2ccc(F)cc2)s1 | -0.2213
COc1cccc(CN2C[C@@H]3COC[C@]3(CN3CCOCC3)C2)c1 | 11.72
CN1CCN(c2nsc(-c3cccnc3)c2C#N)CC1 | 5.224
COc1ccc(Cl)cc1CS(=O)(=O)Cc1noc(C)n1 | 1.255
Cc1cc(C)n(CC2CN(Cc3nc(-c4ccoc4)no3)CCO2)n1 (stereo unspecified) | 3.998
CCc1sc(C(=O)Nc2cnn(CCN(C)C)c2)cc1C | 9.684
CNC(=O)[C@@H](c1ccccc1OC)N1CCC[C@H]1C(=O)NC(C)(C)C | 5.803
c1ccc2c(c1)OCCCC2NCc1nnc2n1CCCCC2 (stereo unspecified) | 2.707
Cc1n[nH]c(C)c1NC(=O)CN1CCOC(Cn2cccn2)C1 (stereo unspecified) | 5.059
COCCC(=O)N1CCCC2(CCC(=O)N(CCc3c[nH]cn3)C2)C1 (stereo unspecified) | 5.592
Cn1ccnc1CN1CCN(Cc2noc(C3CC3)n2)CC1 | 2.105
O=c1c2ccccc2nc2n1C(CSc1ccc(Cl)cc1Cl)CN2 (stereo unspecified) | 0.7675
CN(C)CCNCCC(c1ccccc1)C1CCOC(C)(C)C1 (stereo unspecified) | 2.487
Cc1noc(C2CN(Cc3ccc4c(c3)CCO4)C2)n1 | 8.567
Cc1n[nH]/c(=N\C(=O)c2c3c(nc4onc(C)c24)CCC3)s1 | 4.415
CN(C)c1nccc(C2CCN(C3CCCCC3O)CC2)n1 (stereo unspecified) | -2.7
CCCn1ccc2ccc(NC(=O)N(C)CCOC)cc21 | 3.587
COc1nccc(N2CC[C@@H](N3CCN(C)CC3)[C@H](O)C2)c1C#N | 6.581
COCc1noc(Cn2c(C)cc(C(F)(F)F)cc2=O)n1 | 2.957
CCOc1cccc2c1OCC(C(=O)NC(C)Cn1cccn1)=C2 (stereo unspecified) | 1.143
O=C1NC2(Cc3ccccc31)CN(CC1CCNCC1)C2 | -0.7703
Cn1ncc(C(=O)N2CCCC(n3cccn3)C2)c1C1CC1 (stereo unspecified) | 7.381
C=Cn1ncc(CN2C[C@@H]3CCCN3C[C@@H]2Cc2ccccc2)c1C | 4.34
Nc1ncnc2[nH]c(N3CCCCC3)nc12 | 1.029
O=C(CN1CCCC1Cn1cccn1)NCCC1=CCCCC1 (stereo unspecified) | 3.578
Cc1cccc(NS(=O)(=O)c2cc(C(=O)O)oc2C)c1Cl | 1.89
CC(C)CN1CCc2[nH]cnc2C12CCN(C(=O)c1ccccn1)CC2 | 2.45
CCc1nc(C2CCCN(C(=O)c3ccc(Cl)cc3)C2)no1 (stereo unspecified) | -0.298
COCCNc1nnc(S(=O)(=O)CCC(C)(C)C#N)s1 | -0.6426
Cc1n[nH]cc1CNC(=O)[C@H]1CCCCN1C(=O)OC(C)(C)C | -0.377
CCc1cnc(CN(C)C(=O)NC2CCN(CC3CC3)C2)s1 (stereo unspecified) | 0.1834
CSCCCNc1ncnc2cccc(F)c12 | 3.152
Fc1ccccc1CN1CCCN(c2ncnc3[nH]ccc23)CC1 | 3.67
CN(C(=O)CCC(F)(F)F)c1cccc2ncccc12 | -1.074
O=C1CC2(CCN(C(=O)c3csc(-c4ccccc4)n3)C2)C(=O)N1 (stereo unspecified) | 0.3481
O=C(NCc1cccnc1)C1=NN(c2ccccc2)C(=O)CN1 | 2.479

Repeated from the top, 6 entries:

Result for CC1=N[C@@]2(CC[C@@H]3CN(Cc4ccccc4)C[C@@H]32)C(=O)N1CC1CC1 was 0.8631%.
Result for O=C(NC1CCC1)c1cccc(S(=O)(=O)NCc2nc(C3CC3)no2)c1 was 0.6377%.
Result for Cc1cc(C(=O)N2CCC3(CCC(=O)N(CC(N)=O)C3)CC2)ccc1O was 6.833%.
Result for O=C(NCCc1ccncc1)[C@H]1CC[C@@H]2[C@@H](CCN2C2CCC2)O1 was 2.931%.
Result for CC1CCCN(C(=O)CCc2cccnc2)C1 (stereo unspecified) was 6.435%.
Result for O=C(c1ccc(Br)o1)N1CCCCC1Cn1cccn1 (stereo unspecified) was 2.118%.